The series can be described thus: Chelation of radionuclides, TLC and autoradiography. The series is classed as physicochemical. As to conditions: Tc-99m.

Regarding `CC1=C2N=C(C=C3N=C(C(C)=C4[N-]C(C(CC(N)=O)C4(C)CCC(=O)NCC(C)OP(=O)([O-])OC4C(CO)OC(n5cnc6cc(C)c(C)cc65)C4O)C4(C)N=C1C(CCC(=O)NCCCCNC(=O)CN(CCN(CCN(CC(=O)O)CC(=O)O)CC(=O)O)CC(=O)O)C4(C)CC(N)=O)C(CCC(N)=O)C3(C)C)C(CCC(N)=O)C2(C)CC(N)=O.[CH2-]C1OC(n2cnc3c(N)ncnc32)C(O)C1O.[Co+3]` (centres unmarked) [ADB12DTPA, adenosylcobalamin-b-(4-aminobutyl)-amide-DTPA], the specific activity is on record as 10 mCi/μg.

`CC1=C2N=C(C=C3N=C(C(C)=C4[N-]C(C(CC(N)=O)C4(C)CCC(=O)NCC(C)OP(=O)([O-])OC4C(CO)OC(n5cnc6cc(C)c(C)cc65)C4O)C4(C)N=C1C(CCC(=O)NCCCCNC(=O)CN(CCN(CCN(CC(=O)O)CC(=O)O)CC(=O)O)CC(=O)O)C4(C)CC(N)=O)C(CCC(N)=O)C3(C)C)C(CCC(N)=O)C2(C)CC(N)=O.[CH3-].[Co+3]` (centres unmarked) [MEB12DTPA, methylcobalamin-b-(4-aminobutyl)-amide-DTPA]: the specific activity is 10 mCi/μg.

These data come from patent publication US7462345B2, “Radionuclide labeling of vitamin B12 and coenzymes thereof” (Mayo Foundation for Medical Education and Research, priority 1995, dated 2008).
